In publication PMC4373775:
No constants are given. Whether binding was seen depends on the method and setting. Some results given as binding are weak or reduced against the parent protein; the word gives no strength. Where a sequence is shown, tags or fusion partners need not be part of it.

How the values were obtained:
[1] = target: Mycobacterium tuberculosis ParA (M. tuberculosis) (UniProt A5U9P6); assay: two-hybrid
[2] = target: Mycobacterium tuberculosis ParB, wild type (M. tuberculosis H37Rv) (UniProt P9WIJ9); assay: two-hybrid

B1: Mycobacterium tuberculosis ParB, wild type (protein, UniProt P9WIJ9 1-344)
chain: MTQPSRRKGGLGRGLAALIPTGPADGESGPPTLGPRMGSATADVVIGGPVPDTSVMGAIYREIPPSAIEANPRQPRQVFDEEALAELVHSIREFGLLQPIVVRSLAGSQTGVRYQIVMGERRWRAAQEAGLATIPAIVRETGDDNLLRDALLENIHRVQLNPLEEAAAYQQLLDEFGVTHDELAARIGRSRPLITNMIRLLKLPIPVQRRVAAGVLSAGHARALLSLEAGPEAQEELASRIVAEGLSVRATEETVTLANHEANRQAHHSDATTPAPPRRKPIQMPGLQDVAERLSTTFDTRVTVSLGKRKGKIVVEFGSVDDLARIVGLMTTDGRDKGLHRDAL
[1]
  binding: binds
[2]
  binding: binds
